Values of other authors in US8491930B2, “Pharmaceutical formulation containing ibuprofen and codeine” (Farmasierra Manufacturing, S.L., priority 2008, dated 2013).

CC(C)Cc1ccc(C(C)C(=O)O)cc1 (centres unmarked) [Ibuprofen, 2-(4-isobutyl-phenyl)propionic acid]
Solubility in dilute alkaline solutions (dilute alkaline solutions): soluble in dilute alkaline solutions
Solubility in water (water): practically insoluble in water
